Source: US9526720B2, “Modulators of hepatic lipoprotein metabolism” (The Broad Institute, Inc., priority 2012, dated 2016)
Some results were stated once for a whole list of compounds, not compound by compound.

System: TRIB1
Assay: qPCR TRIB1 expression in Huh-7 cells (secondary confirmation)
Type: cell-based, human

CN(C)c1ccc2c(c1)[C@@H]1C[C@@H](CC(=O)NCc3ccc(Oc4ccccc4)cc3)O[C@@H](CO)[C@@H]1O2 [Compound 12a]
relative TRIB1 expression normalized to GAPDH compared to controls: greater than 2 fold

CN1C(=O)c2cc(NC(=O)c3ccc(C(F)(F)F)cc3)ccc2OC[C@@H]2O[C@@H](CC(=O)NC3Cc4ccccc4C3)CC[C@@H]21 [Compound 2a]
relative TRIB1 expression normalized to GAPDH compared to controls: greater than 2 fold
